This note sets out measurements from the supplement of paper PMC10735217.

Structures can show the parent of a compound that is named as a salt. This is one part of the list. Single values are uncertain here, since repeats match poorly.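 Human kidney-derived cells stably carry a construct in which eight TEAD-binding elements drive luciferase, measured by luminescence in a drug-repurposing library screen. A hit is any compound whose signal exceeds the plate mean by more than five robust Z scores.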

This assay concerns HEK293A TEAD-LUC reporter. Description: TEAD-luciferase reporter activity (YAP activation), robust Z score vs plate; higher = stronger YAP/TEAD activation. The note with it: 24 h.

In the case of `CCCCCCCC/C=C\CCCCCCCC(=O)NCc1ccc(O)c(OC)c1` [Olvanil], the TEAD-luciferase reporter activity is, setting by setting: (compound concentration: 200 nM) inactive: -0.286; (compound concentration: 2 uM) inactive: -0.393; (compound concentration: 10 uM) inactive: 0.96.

For `Cn1c(=O)cc(N2CCC[C@@H](N)C2)n(Cc2ccccc2C#N)c1=O` [alogliptin benzoate], under “compound concentration: 2 uM”, the TEAD-luciferase reporter activity was inactive: 0.0471.

As for `Cn1c(=O)cc(N2CCC[C@@H](N)C2)n(Cc2ccccc2C#N)c1=O` [Alogliptin], the TEAD-luciferase reporter activity reads like this: (compound concentration: 200 nM) inactive: -1.51; (compound concentration: 10 uM) inactive: 0.416.

As to `CC(=O)N[C@@H](Cc1ccc(OP(=O)(O)O)cc1)C(=O)N[C@@H](C)c1ccc(OCC2CCCCC2)c(C(N)=O)c1`, the TEAD-luciferase reporter activity by setting is: (compound concentration: 200 nM) inactive: -1.81; (compound concentration: 2 uM) inactive: -1.08; (compound concentration: 10 uM) inactive: -1.3.

For the compound `COc1ccc2c(c1)[C@]1(C[C@H]1c1ccc3c(/C=C/c4ccc(CN5C[C@@H](C)O[C@@H](C)C5)cc4)n[nH]c3c1)C(=O)N2`, the TEAD-luciferase reporter activity was inactive: -0.834 (compound concentration: 200 nM), inactive: 0.089 (compound concentration: 2 uM) and inactive: 2.27 (compound concentration: 10 uM).

For the compound `CCCc1nc2c(C)cc(-c3nc4ccccc4n3C)cc2n1Cc1ccc(-c2ccccc2C(=O)O)cc1`, the TEAD-luciferase reporter activity (compound concentration: 200 nM) was inactive: 1.06 and the TEAD-luciferase reporter activity (compound concentration: 10 uM) was inactive: -2.21.

Turning to `CCCc1nc2c(C)cc(-c3nc4ccccc4n3C)cc2n1Cc1ccc(-c2ccccc2C(=O)O)cc1` [Telmisartan], the TEAD-luciferase reporter activity (compound concentration: 2 uM) was inactive: -1.36.

As for `Cc1cc(OCCN2CCOCC2)nn1-c1ccc2ccccc2c1`, the TEAD-luciferase reporter activity is, setting by setting: (compound concentration: 200 nM) inactive: 0.276; (compound concentration: 2 uM) inactive: -0.519; (compound concentration: 10 uM) inactive: -1.14.

With `CN(Cc1ccc(F)cc1)CC1CCCCC1`, the TEAD-luciferase reporter activity was inactive: -2.87 (compound concentration: 200 nM) and inactive: -0.43 (compound concentration: 10 uM).

With `NC1C(O)OC(CO)C(O)C1O` (centres undefined) [Glucosamine sulfate], the TEAD-luciferase reporter activity reads like this: (compound concentration: 200 nM) inactive: -1.13; (compound concentration: 2 uM) inactive: -0.061; (compound concentration: 10 uM) inactive: 0.403.

As for `O=C1NCNC1(c1ccccc1)c1ccccc1` [Doxenitoin], the TEAD-luciferase reporter activity is, setting by setting: (compound concentration: 200 nM) inactive: -0.426; (compound concentration: 2 uM) inactive: -0.594; (compound concentration: 10 uM) inactive: -1.38.

As to `CC1CCC2(OC1)OC1CC3C4CC(O)C5CC(O)CCC5(C)C4CCC3(C)C1C2C` (centres undefined), the TEAD-luciferase reporter activity is inactive: -1.19 (compound concentration: 200 nM), inactive: -1.74 (compound concentration: 2 uM) and inactive: 1.54 (compound concentration: 10 uM).

In the case of `O=C(O)C1(C(=O)O)CCC1` [1,1-Cyclobutanedicarboxylic Acid], the TEAD-luciferase reporter activity (compound concentration: 2 uM) is inactive: -2.26.

In the case of `O=C(O)C1(C(=O)O)CCC1` [Dicycloplatin], the TEAD-luciferase reporter activity is inactive: -0.884 (compound concentration: 200 nM) and inactive: 0.796 (compound concentration: 10 uM).

`CCC[C@@H]1O[C@@H]2C[C@H]3[C@@H]4C[C@H](F)C5=CC(=O)CC[C@]5(C)[C@@]4(F)[C@@H](O)C[C@]3(C)[C@]2(C(=O)S[C@H]2CCOC2=O)O1`: the TEAD-luciferase reporter activity by setting is: (compound concentration: 200 nM) inactive: 0.359; (compound concentration: 2 uM) inactive: 1.06; (compound concentration: 10 uM) inactive: 1.63.

`CC1(C)S[C@H]2[C@H](NC(=O)C(C(=O)Oc3ccc4c(c3)CCC4)c3ccccc3)C(=O)N2[C@@H]1C(=O)O` (some centres undefined): the TEAD-luciferase reporter activity is inactive: -1.15 (compound concentration: 200 nM), inactive: -0.152 (compound concentration: 2 uM) and inactive: 0.672 (compound concentration: 10 uM).

Turning to `O=C(CN1C(=O)C2(CCCC2)NC[C@H]1c1cc(F)cc(F)c1)Nc1ccc2c(c1)C[C@@]1(C2)C(=O)Nc2ncccc21`, the TEAD-luciferase reporter activity is inactive: 0.705 (compound concentration: 200 nM), inactive: -0.599 (compound concentration: 2 uM) and inactive: 0.927 (compound concentration: 10 uM).

Regarding `COc1ccccc1C(=O)N1CCC(N2Cc3ccccc3C2=O)CC1`, the TEAD-luciferase reporter activity runs as follows: (compound concentration: 200 nM) inactive: 1.57; (compound concentration: 10 uM) inactive: 0.43.

In the case of `Nc1nc(-c2nn(Cc3ccccc3F)c3ncccc23)nc(N)c1N1CCOCC1`, the TEAD-luciferase reporter activity was inactive: -1.35 (compound concentration: 200 nM), inactive: -0.307 (compound concentration: 2 uM) and inactive: 1.61 (compound concentration: 10 uM).

Take `C[C@]12C=CC(=O)C=C1[C@@H](F)C[C@@H]1[C@@H]2[C@@H](O)C[C@@]2(C)[C@H]1CC[C@]2(O)C(=O)CO`: the TEAD-luciferase reporter activity (compound concentration: 200 nM) was inactive: 3.66, the TEAD-luciferase reporter activity (compound concentration: 2 uM) is inactive: 0.355 and the TEAD-luciferase reporter activity (compound concentration: 10 uM) is inactive: 3.41.

As to `Cc1ncc(NC(=O)c2ccc(CN3CCN(C)CC3)c(C(F)(F)F)c2)cc1Nc1nccc(-c2cccnc2)n1` [Flumatinib mesylate], the TEAD-luciferase reporter activity is, setting by setting: (compound concentration: 200 nM) inactive: -1.73; (compound concentration: 2 uM) inactive: -1.25; (compound concentration: 10 uM) inactive: -1.08.

As for `O=C(NCC1CC1)C1CCCN(c2nc3ncccc3o2)C1` (centres undefined), the TEAD-luciferase reporter activity runs as follows: (compound concentration: 200 nM) inactive: 0.881; (compound concentration: 10 uM) inactive: -0.767.

Consider `CC[C@H](C)[C@@H]1NC(=O)[C@H](Cc2ccc(O)cc2)NC(=O)[C@@H](N)CSSC[C@@H](C(=O)N2CCC[C@H]2C(=O)N[C@@H](CC(C)C)C(=O)NCC(N)=O)NC(=O)[C@H](CC(N)=O)NC(=O)[C@H]([C@@H](C)O)NC1=O`, for which the TEAD-luciferase reporter activity was inactive: -0.95 (compound concentration: 200 nM), inactive: -0.614 (compound concentration: 2 uM) and inactive: -1.9 (compound concentration: 10 uM).

As to `CN(C)CC/C=C1\c2ccccc2COc2ccccc21`, the TEAD-luciferase reporter activity is inactive: 0.994 (compound concentration: 200 nM) and inactive: 0.52 (compound concentration: 10 uM).

For `CN(C)CC/C=C1\c2ccccc2COc2ccccc21` [cidoxepin], for the setting “compound concentration: 2 uM”, the TEAD-luciferase reporter activity is inactive: 0.96.

As for `CN(C)CCCN1c2ccccc2Sc2ccc(Cl)cc21` [Chlorpromazine], the TEAD-luciferase reporter activity (compound concentration: 2 uM) was inactive: -0.2.

For `CN(C)CCCN1c2ccccc2Sc2ccc(Cl)cc21` [Chlorpromazine69-09-0], the TEAD-luciferase reporter activity (compound concentration: 200 nM) is inactive: 1.06 and the TEAD-luciferase reporter activity (compound concentration: 10 uM) is inactive: 1.22.

For the compound `CC(=O)/N=c1\sc(S(N)(=O)=O)nn1C` [Methazolamide], the TEAD-luciferase reporter activity was inactive: -2.16 (compound concentration: 200 nM), inactive: 0.512 (compound concentration: 2 uM) and inactive: 0.949 (compound concentration: 10 uM).

Consider `N#Cc1cccc(CN2CCCCC23Cc2ccccc2CNC3=O)c1` (centres undefined), for which the TEAD-luciferase reporter activity was inactive: -1.31 (compound concentration: 200 nM) and inactive: 2.1 (compound concentration: 10 uM).

Consider `CCOC(=O)Cn1cccc1-c1nc(-c2ccc(OC)cc2)c(-c2ccc(OC)cc2)s1`, for which the TEAD-luciferase reporter activity was inactive: -1.08 (compound concentration: 200 nM), inactive: -0.794 (compound concentration: 2 uM) and inactive: 0.103 (compound concentration: 10 uM).

With `CCc1oc2ccccc2c1C(=O)c1cc(Br)c(O)c(Br)c1` [benzbromarone], the TEAD-luciferase reporter activity (compound concentration: 2 uM) was inactive: 0.671.

Take `CCc1oc2ccccc2c1C(=O)c1cc(Br)c(O)c(Br)c1`: the TEAD-luciferase reporter activity runs as follows: (compound concentration: 200 nM) inactive: -1.14; (compound concentration: 10 uM) inactive: -0.975.
